PubChem BioAssay AID1259254, NCATS – 2017
This is one part, drawn at random, of about 59,000 reagents. Of all reagents, about 1,550 (2.6%) are marked active. 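G2 share is only a proxy for re-replication; each gene was hit by three separate siRNAs, and active genes were retested.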 A number with no mark means an inactive call. The numbers tell different reagents against one gene apart. Further read-outs or replicates are left out here. Not stated in the record: the amount of reagent.

Aim: 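Finding genes that stop cells copying their DNA twice in one cycle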 (primary screen)
Cell system: human HCT116 colorectal cancer cells
Reagents: single siRNA against human genes
Duration: 3 days
Read-out: 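Nuclei stained with Hoechst and imaged; cell-cycle phase assigned by DNA content; G2 share scaled per plate, non-targeting siRNA 0%, GMNN siRNA 100%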
Direction: G2 robust z-score and G2 cells, % of GMNN control: higher = more G2 cells, more excess DNA replication
Active means: 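Active siRNAs have a G2 robust z of 5 or more median absolute deviations over the median, which in these data means about 38% or higher of GMNN control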

The first 3 records, ahead of the listing:
| gene | reagent no. | G2 robust z-score | G2 cells, % of GMNN control |
| --- | --- | --- | --- |
| EMG1 | 1 | -0.94 | -3.64 |
| EMG1 | 2 | 1.72 | 15.1 |
| EMG1 | 3 | 0.275 | 4.9 |

The listing, repeating the preview:
| gene | reagent no. | G2 robust z-score | G2 cells, % of GMNN control |
| --- | --- | --- | --- |
| EMG1 | 1 | -0.94 | -3.64 |
| EMG1 | 2 | 1.72 | 15.1 |
| EMG1 | 3 | 0.275 | 4.9 |
| GPR26 | 1 | 4.06 | 31.5 |
| GPR26 | 2 | 1.19 | 11.4 |
| GPR26 | 3 | -0.793 | -2.61 |
| RNASEH2C | 1 | -0.985 | -3.96 |
| RNASEH2C | 2 | -0.799 | -2.66 |
| RNASEH2C | 3 | -0.303 | 0.838 |
| GPRC6A | 1 | -0.527 | -0.741 |
| GPRC6A | 2 | -0.517 | -0.67 |
| GPRC6A | 3 | -0.251 | 1.2 |
| EEA1 | 1 | -0.905 | -3.4 |
| EEA1 | 2 | 0.14 | 3.95 |
| EEA1 | 3 | -0.712 | -2.04 |
| PMFBP1 | 1 | -0.237 | 1.3 |
| PMFBP1 | 2 | 0.876 | 9.13 |
| PMFBP1 | 3 | -0.604 | -1.28 |
| NUP85 | 1 | -1.58 | -8.16 |
| NUP85 | 2 | -0.0612 | 2.54 |
| NUP85 | 3 | 9.57 (active) | 70.3 |
| SULT1C5P | 1 | -0.689 | -1.88 |
| SULT1C5P | 2 | 3.91 | 30.5 |
| SULT1C5P | 3 | 0.131 | 3.89 |
| WNT5A | 1 | 0.348 | 5.41 |
| WNT5A | 2 | 6.29 (active) | 47.3 |
| WNT5A | 3 | -0.213 | 1.47 |
| RPL36AL | 1 | 0.0606 | 3.39 |
| RPL36AL | 2 | -0.152 | 1.9 |
| RPL36AL | 3 | 0.956 | 9.7 |
